This passage reports binding results from PMC11900821.

Protein sequences, listed by entry. Tags and fused reporters are not part of them.
UniProt P40763: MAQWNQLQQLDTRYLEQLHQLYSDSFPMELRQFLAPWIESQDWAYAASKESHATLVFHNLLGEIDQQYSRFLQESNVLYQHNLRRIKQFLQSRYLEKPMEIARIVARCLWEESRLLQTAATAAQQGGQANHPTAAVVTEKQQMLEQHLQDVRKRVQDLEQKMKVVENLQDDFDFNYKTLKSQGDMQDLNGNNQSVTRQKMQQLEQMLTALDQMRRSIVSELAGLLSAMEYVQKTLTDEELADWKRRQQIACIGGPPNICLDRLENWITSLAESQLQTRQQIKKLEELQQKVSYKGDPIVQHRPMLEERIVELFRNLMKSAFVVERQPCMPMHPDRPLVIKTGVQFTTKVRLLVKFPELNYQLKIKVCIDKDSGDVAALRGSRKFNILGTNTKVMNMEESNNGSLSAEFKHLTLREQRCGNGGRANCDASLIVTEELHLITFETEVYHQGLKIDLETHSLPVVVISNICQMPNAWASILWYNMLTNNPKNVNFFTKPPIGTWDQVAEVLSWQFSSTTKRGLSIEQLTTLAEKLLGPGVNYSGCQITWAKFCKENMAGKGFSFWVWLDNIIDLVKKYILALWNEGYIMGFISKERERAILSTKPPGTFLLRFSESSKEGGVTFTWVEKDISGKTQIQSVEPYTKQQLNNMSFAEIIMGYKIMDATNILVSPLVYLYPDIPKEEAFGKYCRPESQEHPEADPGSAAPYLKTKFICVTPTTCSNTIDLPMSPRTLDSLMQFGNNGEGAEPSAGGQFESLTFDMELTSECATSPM

These are yes or no findings as the source states them, for the method shown. In cells and extracts the contact can be indirect. A yes stands for co-enrichment or nearness to the bait. Other partners may have been found.

The target of this experiment is wild-type (WT) STAT3, Flag-tagged and HA-tagged (human) (UniProt P40763). Put plainly: affinity purification with mass spectrometry; enrichment of FLAG-tagged STAT3 protein, followed by LC-MS analysis of interacting proteins.

B1: DIRAS2 (protein, UniProt Q96HU8 1-199)
chain: MPEQSNDYRVAVFGAGGVGKSSLVLRFVKGTFRESYIPTVEDTYRQVISCDKSICTLQITDTTGSHQFPAMQRLSISKGHAFILVYSITSRQSLEELKPIYEQICEIKGDVESIPIMLVGNKCDESPSREVQSSEAEALARTWKCAFMETSAKLNHNVKELFQELLNLEKRRTVSLQIDGKKSKQQKRKEKLKGKCVIM
Regarding B1, the binding result is recorded as “binds”.
